Experimental data from patent US10610564B2, “IRGM and precision autophagy controls for antimicrobial and inflammatory disease states and methods of detection of autophagy” (STC.UNM, priority 2015, dated 2020).
At least one structure is not confirmed: it was looked up by name or label, or the drawing left a doubt.

Test system: autophagy
Assay: Autophagy assays identifying autophagy modulators
Format: cell-based

Compound	activity as autophagy modulator
Fc1ccc(C(OCCN2CCN(CCCc3ccccc3)CC2)c2ccc(F)cc2)cc1 [GBR 12909]	agonists or inducers of autophagy
CCCNCC(O)COc1ccccc1C(=O)CCc1ccccc1 (centres unmarked) [propafenone]	agonists or inducers of autophagy
